Where a name gives a salt, the structure may show the parent alone. Read-outs that look alike come from different tables or passages of the source. The campaign covered roughly 3,300 compounds. About 95 (3%) showed an effect of 50% or more. Some of the results follow.
Tested on: HCoV-229E
Parameters: species or system Huh-7; HTS, protection from HCoV-229E induced cell death, luminescent cell viability (CellCounting-Lite 2.0), inhibition rate
Conditions: 24 h post infection, 1 h compound pre-incubation, 10 µM, inhibitor

| SMILES | 229E Inhibition rate [%] | 229E Inhibition rate (229E Inhibition rate, 24 h) [%] |
| --- | --- | --- |
| C[C@@H]1O[C@@H](O[C@H]2[C@H](O)[C@@H](O)[C@H](O[C@H]3CC[C@]4(C)[C@H]5CC=C6[C@@H]7CC(C)(C)CC[C@]7(CO)[C@@H](O)C[C@@]6(C)[C@]5(C)CC[C@H]4C3(C)C)O[C@@H]2CO[C@@H]2O[C@H](CO)[C@@H](O)[C@H](O)[C@H]2O)[C@H](O)[C@H](O)[C@H]1O [Saikosaponin F] | 31.2 |  |
| O=c1[nH]c2ccccc2o1 [2-Benzoxazolinone] | 9.3 |  |
| CC(=O)NCCCC(=O)O [4-Acetamidobutanoic acid] | 16.3 |  |
| CC(C)=CCC[C@](C)(O[C@@H]1O[C@H](CO[C@@H]2O[C@H](CO)[C@@H](O)[C@H](O)[C@H]2O)[C@@H](O)[C@H](O)[C@H]1O)[C@H]1CC[C@]2(C)[C@@H]1[C@H](O)C[C@@H]1[C@@]3(C)CC[C@H](O[C@@H]4O[C@H](CO)[C@@H](O)[C@H](O)[C@H]4O)C(C)(C)[C@@H]3CC[C@]12C [Gypenoside XVII] | 9.4 |  |
| Oc1cccc(O)c1O [Pyrogallol] | 33 |  |
| COC1=CC(=O)C[C@@H](C)[C@]12Oc1c(Cl)c(OC)cc(OC)c1C2=O [Griseofulvin] | 18.8 |  |
| CC(C)=CCOc1ccc2ccc(=O)oc2c1 [7-Prenyloxycoumarin] | 10.2 |  |
| O=C(/C=C/C=C/c1ccccc1)CCc1ccccc1 [Alnustone] | 13.5 |  |
| COc1ccc(-c2coc3cc(O)cc(O)c3c2=O)cc1 [Biochanin A] | 0 |  |
| O=C(O)C(=O)O [Oxalic acid dihydrate] |  | 19.5 |
| C[C@H](CCC(=O)NCC(=O)O)[C@H]1CC[C@H]2[C@@H]3[C@H](O)C[C@@H]4C[C@H](O)CC[C@]4(C)[C@H]3CC[C@]12C [Glycochenodeoxycholic acid (sodium salt)] |  | 11.2 |
| C[C@@H]1O[C@@H](O[C@H]2[C@H](O[C@H]3CC[C@@]4(C)[C@@H](CC[C@]5(C)[C@@H]4CC=C4[C@@H]6CC(C)(C)CC[C@]6(C(=O)O[C@@H]6O[C@H](CO[C@@H]7O[C@H](CO)[C@@H](O)[C@H](O)[C@H]7O)[C@@H](O)[C@H](O)[C@H]6O)CC[C@]45C)[C@]3(C)CO)OC[C@H](O)[C@@H]2O)[C@H](O)[C@H](O)[C@H]1O [Dipsacoside B] | 11.1 |  |
| O=c1cc(-c2ccc(O)cc2)oc2cc(O[C@@H]3O[C@H](CO)[C@@H](O)[C@H](O)[C@H]3O)cc(O)c12 [Apigenin 7-glucoside] | 31.1 |  |
| COc1ccc2c(c1OC)O[C@H]1c3ccc(O)cc3OC[C@@H]21 [Methylnissolin] | 38.6 |  |
| Nc1ccc(-c2ccccc2)cn1 [2-Amino-5-phenylpyridine] | 7.2 |  |
| O=c1ccn([C@H]2C[C@H](O)[C@@H](CO)O2)c(=O)[nH]1 [2'-Deoxyuridine] | 11 |  |
| O=C(O)[C@H]1CCCCN1 [D-Pipecolinic acid] | 9.3 |  |
| Nc1nc(=O)c2c([nH]1)NC[C@H](CNc1ccc(C(=O)N[C@@H](CCC(=O)O)C(=O)O)cc1)N2C=O [Levoleucovorin (Calcium)] | 17.5 |  |

| SMILES | 229E Inhibition rate [%] | 229E Inhibition rate (229E Inhibition rate, 24 h) [%] |
| --- | --- | --- |
| O=P(O)(O)OC[C@H]1OC(O)(COP(=O)(O)O)[C@@H](O)[C@@H]1O (stereo partly drawn) [Fosfructose (trisodium)] | 8.8 |  |
| COc1cc(C[C@@H](CO)[C@H](CO)Cc2ccc(O)c(OC)c2)ccc1O [Secoisolariciresinol] |  | 21.7 |
| CC(C)=C[C@@H]1CO[C@]23C[C@]4(CO2)[C@H](CC[C@@H]2[C@@]5(C)CC[C@H](O[C@@H]6OC[C@H](O)[C@H](O[C@@H]7O[C@H](COS(=O)(=O)O)[C@@H](O)[C@H](O)[C@H]7O)[C@H]6O[C@@H]6O[C@@H](CO)[C@H](O)[C@H]6O)C(C)(C)[C@@H]5CC[C@]24C)[C@H]3[C@@]1(C)O [Bacopaside I] | 22.9 |  |
| CC(C)c1cccc(=O)c(O)c1 [Hinokitiol] | 31 |  |
| C=CCc1ccc(O)c(-c2cc(CC=C)ccc2O)c1 [Magnolol] | 36.2 |  |
| CC(C)=CCc1c(O)c(CC=C(C)C)c2oc3c(O)cccc3c(=O)c2c1O [8-Deoxygartanin] | 0 |  |
| COc1ccc(-c2oc3c(CC=C(C)C)c(O[C@@H]4O[C@H](CO)[C@@H](O)[C@H](O)[C@H]4O)cc(O)c3c(=O)c2O)cc1 [Icariside I] | 7.4 |  |
| O=C(O)/C=C/C(=O)O [Fumaric acid] | 7.3 |  |
| O=Cc1ccc(O)cc1O [2,4-Dihydroxybenzaldehyde] | 19.8 |  |
| CCCCOC(=O)c1ccccc1C(=O)OCCCC [Dibutyl phthalate] | 7.2 |  |
| CC(C)=CCC[C@](C)(O[C@@H]1O[C@H](CO)[C@@H](O)[C@H](O)[C@H]1O)[C@H]1CC[C@]2(C)[C@@H]1[C@H](O)C[C@@H]1[C@@]3(C)CC[C@H](O)C(C)(C)[C@@H]3CC[C@]12C [Ginsenoside C-K] | 9.7 |  |
| CCCCCCCCCCCCCC(=O)OC[C@H](COP(=O)(O)OCCN)OC(=O)CCCCCCCCCCCCC [(2R)-3-(((2-Aminoethoxy)(hydroxy)phosphoryl)oxy)propane-1,2-diyl ditetradecanoate] | 20 |  |
| O=C1O[C@H]([C@@H](O)CO)C(O)=C1O [L-Ascorbic acid (sodium salt)] |  | 18.5 |
| C=C(C)C(=O)O[C@H]1[C@@H]2[C@H](C)C(=O)O[C@@H]2C[C@@H](C)[C@@H]2C=CC(=O)[C@]21C [Arnicolide D] | 12.8 |  |
| NCC(=O)CCC(=O)O [5-Aminolevulinic acid (hydrochloride)] | 10.5 |  |
| C=C1C(=O)O[C@@H]2[C@H]3C(CO)=CC(=O)C3=C(C)C[C@H](OC(=O)Cc3ccc(O)cc3)[C@@H]12 [Lactupicrin] | 4.8 |  |
| CC(=O)OC(C)(C)C1CC=C(C)CC1 (stereo not drawn) [α-Terpinyl acetate] | 24.1 |  |
| C[C@@H]1O[C@@H](OC[C@H]2O[C@@H](OCCc3ccc(O)c(O)c3)[C@H](O)[C@@H](OC(=O)/C=C/c3ccc(O)c(O)c3)[C@@H]2O)[C@H](O)[C@H](O)[C@H]1O [Forsythoside I] |  | 10.1 |

Three structures from above, sorted by number of heavy atoms, high to low.

| SMILES | 229E Inhibition rate [%] | 229E Inhibition rate (229E Inhibition rate, 24 h) [%] |
| --- | --- | --- |
| CC(C)=C[C@@H]1CO[C@]23C[C@]4(CO2)[C@H](CC[C@@H]2[C@@]5(C)CC[C@H](O[C@@H]6OC[C@H](O)[C@H](O[C@@H]7O[C@H](COS(=O)(=O)O)[C@@H](O)[C@H](O)[C@H]7O)[C@H]6O[C@@H]6O[C@@H](CO)[C@H](O)[C@H]6O)C(C)(C)[C@@H]5CC[C@]24C)[C@H]3[C@@]1(C)O [Bacopaside I] | 22.9 |  |
| O=C(/C=C/C=C/c1ccccc1)CCc1ccccc1 [Alnustone] | 13.5 |  |
| O=C(O)/C=C/C(=O)O [Fumaric acid] | 7.3 |  |

— publication PMC12431657, “Discovery and mechanistic insights of dibenzoylmethane as a broad spectrum inhibitor of coronavirus” (PLOS Pathogens, 2025)
